From paper doi:10.1101/2020.01.22.915017
No constants are given. Whether binding was seen depends on the method and setting. Some binding calls cover weakened binding; strength is not graded here. Tags and fused reporters may be left off the sequences shown.

Sequences of proteins named here, by UniProt entry; tags and fusion partners are left off. Residues count along the entry.
UniProt O43493, residues 403-437: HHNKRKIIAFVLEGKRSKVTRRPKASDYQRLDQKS

Target: cytoplasmic domain of human TGN38 fused to the GAL4 DNA-binding domain (human) (UniProt O43493)
Assay: two-hybrid

B1: µ3 subunit of AP-3 fused to the activation domain of GAL4 (protein, UniProt P53676 1-418)
chain: MIHSLFLINCSGDIFLEKHWKSVVSQSVCDYFFEAQEKAADVENVPTVISTPHHYLISIYRDKLFFVSVIQTEVPPLFVIEFLHRVADTFQDYFGECSEAAIKDNVVIVYELLEEMLDNGFPLATESNILKELIKPPTILRSVVNSITGSSNVGDTLPTGQLSNIPWRRAGVKYTNNEAYFDVVEEIDAIIDKSGSTVFAEIQGVIDACIKLSGMPDLSLSFMNPRLLDDVSFHPCIRFKRWESERVLSFIPPDGNFRLISYRVSSQNLVAIPVYVKHNISFKENSSCGRFDITIGPKQNMGKTIEGITVTVHMPKVVLNMNLTPTQGSYTFDPVTKVLAWDVGKITPQKLPSLKGLVNLQSGAPKPEENPNLNIQFKIQQLAISGLKVNRLDMYGEKYKPFKGVKYITKAGKFQVRT
**Q.** With B1 as the binder, how does the binding read?
**A.** binds
